Data taken from ChEMBL document CHEMBL3988442, “University of Dundee, Small-Polar-MMV Screening Library” (2021).

Values are the deposited “Percent Effect”, in %. The record does not define 0% and 100%; most values in the screen are far below 50% and negative numbers occur (in some assays of this library far below -100). This is an unselected part of the compounds tested. Two or more numbers in one place are separate tests of the same structure; such repeats can differ widely.

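Viability assay of Plasmodium falciparum sporozoites; the read-out is not stated. The concentration is filed as 10 mM, unlikely as a test dose, so the dose is not known. Higher reads as lower viability (inferred: compounds with an IC50 in retests scored well above the rest). Strong results were mostly tested again. About 34,000 compounds were tested under these conditions; 0.84% (about 280) showed 50% or more at least once.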

Compound	effect
CCn1ccc2ccnc(CC3CN(C(=O)c4cnco4)C3)c21	10.05
Cc1nc2n(n1)CC(NCc1nc(-c3ccccn3)no1)CC2 (stereo not given)	29.1 & 35.44 & 36.37
CCOCC(O)CN1CCN(C(=O)Cc2ccccc2Cl)CC1 (stereo not given)	-3.462
Cc1ccc(N2CCC3(CC2)CC(OCC(=O)N(C)C)CO3)nn1 (stereo not given)	-18.74
Cn1ccc(C(=O)NC2CCC23CCN(C(=O)c2cnccn2)CC3)c1 (stereo not given)	14.31
Cc1ncc(CN(Cc2ccccn2)Cc2ccccc2Cl)n1C.O=C(O)CC(O)(CC(=O)O)C(=O)O	4.412
CCCn1cnnc1CNCc1c[nH]nc1-c1ccc(F)cc1	-4.491
[H][C@@]12CN(C(=O)c3ccc(C)nc3)C[C@]1([H])OCCN2C(C)C	-17
[H][C@@]12COC[C@]1(COCC1CC1)CN(C(=O)c1ccnnc1)C2	5.113
Cc1ccnc(C2CN(Cc3cnn(-c4ccccc4C(=O)O)c3)C2)n1	1.424
N#Cc1cccc(N2CC3(CCN(C(=O)NC4CC4)C3)CC2=O)c1 (stereo not given)	-4.866
COc1ccc(-c2cc(C3CC3)c(C#N)c(N)n2)cc1F	-2.163
Cc1nc2c(c(C)c1CC(=O)NCc1cccs1)c(=O)[nH]n2C	-3.776
[H][C@@]12CCN(Cc3ccc(C)cc3)C[C@]1([H])[C@H](c1nc(C)no1)CCO2	-13.26
O=C(c1ccc[nH]1)N1CCc2ncc(Cn3cccn3)n2CC1	-3.51
CCCc1cc(C(=O)NCCn2nc3ccccn3c2=O)[nH]n1	6.709
[H][C@@]12CN(C(=O)C3CCOCC3)C[C@@]1([H])N(CC1CC1)C(=O)CO2	0 & 4.658 & 11.8
O=C(Nc1ccccc1)C1CCN(C(=O)COc2ccccc2F)CC1	7.166
Cc1ccc(CN2CC3(CCN(C(=O)Cc4ccc(Cl)cc4)C3)C2)o1	4.649
CC(C)Nc1ncnc2c1CCN(Cc1ccoc1)CC2	-6.679
Cc1cnn(CCNCC(O)COc2ccc(F)cc2)c1 (stereo not given)	8.906
CN1C[C@]2(CC[C@@H](C(=O)N3CCOCC3)CC2)Oc2ccccc2C1=O	5.005
Cl.c1ccc(CN2CCNCC(Cc3cnccn3)C2)cc1 (stereo not given)	-2.712
CC1CN(CC(=O)NCc2ccccn2)CCN1Cc1nccn1C (stereo not given)	-5.63
O=C(O)C(F)(F)F.[H][C@]12CC[C@@]3(N=C(C)N(CC4CC4)C3=O)[C@@]1([H])CN(CC1CC1)C2	-6.137
O=C(Cc1nc(-c2ccncc2)n[nH]1)N1CCOCC1	-0.1791
Cn1ccc(C(=O)N2CCC(Cc3ccc4ncccc4c3)CC2)n1	5.39
[H][C@]12CN(C(=O)CC3CCCC3)[C@]([H])(CN1)C2	1.369
O=C(CCCn1cncn1)NC1CCc2nccn2C1 (stereo not given)	5.214
Cc1cnn(CCCNC2Cc3ccccc3C2)c1	-2.331
COc1ccc(-c2csc(N)c2C#N)cc1OC	-1.096
COCC1c2c(cnn2CC2CC2)CCN1Cc1nccs1.O=C(O)C(F)(F)F.O=C(O)C(F)(F)F (stereo not given)	-4.437
CCc1ccccc1-n1nnc(C(=O)O)c1-c1ccccn1	-20.86
O=C(c1ccc[nH]1)N1CCC2(CC1)C(=O)Nc1ccccc12	-10.15
Cc1ncc(CN2CCOC(CNc3cccnn3)C2)s1 (stereo not given)	8.713
O=C(NCC1CC1)C1CCC2(CCN(C(=O)c3cnccn3)CC2)O1 (stereo not given)	1.264
O=C(c1cccnc1SCc1ccccc1)N1CCOCC1	2.711
Cc1ncc(C(=O)NCCNC(=O)Cc2cccc(F)c2)s1	16.87
CC(C)n1nccc1CN1Cc2nccn2CC1c1ccccc1 (stereo not given)	6.031
O=C(O)C(F)(F)F.[H][C@]12CCN(CC(C)C)CC[C@@]1([H])S(=O)(=O)CCN2C(C)=O	11.37
O=C1CN(S(=O)(=O)CC(F)(F)F)CC(O)CN1CCCc1ccccc1 (stereo not given)	9.856
O=C(NCCOc1ccc2c(c1)OCO2)N1CCCC(CO)C1 (stereo not given)	-14.83
Cc1ccc(-c2nnc(CN3CCOCC(CO)C3)o2)n1C (stereo not given)	-8.215
O=S1(=O)CCC(N(CCc2ccc3c(c2)CCO3)C2CC2)C1 (stereo not given)	-9.434
Cc1cc(O)c(OCC(=O)/N=c2\[nH]c(C)c(C)s2)cn1	30.57 & -8.516
CCOc1ccccc1-n1c(C2CC2)n[nH]c1=O	4.655
CN1CCC(N(C)C[C@H]2CC[C@@H](Cc3cccc(CO)c3)O2)CC1	-2.3
CO[C@H]1CN(Cc2nc3ccccc3n2C)CC[C@@]12CCCO2	3.367
NC1C=C(C(F)(F)F)NC=C1c1ccc(Cl)cc1 (stereo not given)	-4.498
CN1CC(c2cc(O)nc(NCc3cccc(F)c3)n2)CC1=O (stereo not given)	-3.075
Cc1nn(C)c(Cl)c1C1CCCN1C(=O)c1csnn1 (stereo not given)	1.912
Cc1cc(C)n(-c2nc(C(=O)NCCN3CCC(C)CC3)cs2)n1	0.1609
CCOc1ccccc1OC1CCN(Cc2ccn(C)c(=O)c2)CC1	8.133
CNC(=O)CCC(=O)N1CCOC(c2ccc3cc(OC)ccc3c2)C1 (stereo not given)	98.94 & 98.67 & 101